Measured values from PMC3418561.
No constants are given. Whether binding was seen depends on the method and setting. In cells and extracts the contact can be indirect. Some binding calls cover weakened binding; strength is not graded here.

Amino acid sequences for entries named in this document (tags omitted).
UniProt Q62689: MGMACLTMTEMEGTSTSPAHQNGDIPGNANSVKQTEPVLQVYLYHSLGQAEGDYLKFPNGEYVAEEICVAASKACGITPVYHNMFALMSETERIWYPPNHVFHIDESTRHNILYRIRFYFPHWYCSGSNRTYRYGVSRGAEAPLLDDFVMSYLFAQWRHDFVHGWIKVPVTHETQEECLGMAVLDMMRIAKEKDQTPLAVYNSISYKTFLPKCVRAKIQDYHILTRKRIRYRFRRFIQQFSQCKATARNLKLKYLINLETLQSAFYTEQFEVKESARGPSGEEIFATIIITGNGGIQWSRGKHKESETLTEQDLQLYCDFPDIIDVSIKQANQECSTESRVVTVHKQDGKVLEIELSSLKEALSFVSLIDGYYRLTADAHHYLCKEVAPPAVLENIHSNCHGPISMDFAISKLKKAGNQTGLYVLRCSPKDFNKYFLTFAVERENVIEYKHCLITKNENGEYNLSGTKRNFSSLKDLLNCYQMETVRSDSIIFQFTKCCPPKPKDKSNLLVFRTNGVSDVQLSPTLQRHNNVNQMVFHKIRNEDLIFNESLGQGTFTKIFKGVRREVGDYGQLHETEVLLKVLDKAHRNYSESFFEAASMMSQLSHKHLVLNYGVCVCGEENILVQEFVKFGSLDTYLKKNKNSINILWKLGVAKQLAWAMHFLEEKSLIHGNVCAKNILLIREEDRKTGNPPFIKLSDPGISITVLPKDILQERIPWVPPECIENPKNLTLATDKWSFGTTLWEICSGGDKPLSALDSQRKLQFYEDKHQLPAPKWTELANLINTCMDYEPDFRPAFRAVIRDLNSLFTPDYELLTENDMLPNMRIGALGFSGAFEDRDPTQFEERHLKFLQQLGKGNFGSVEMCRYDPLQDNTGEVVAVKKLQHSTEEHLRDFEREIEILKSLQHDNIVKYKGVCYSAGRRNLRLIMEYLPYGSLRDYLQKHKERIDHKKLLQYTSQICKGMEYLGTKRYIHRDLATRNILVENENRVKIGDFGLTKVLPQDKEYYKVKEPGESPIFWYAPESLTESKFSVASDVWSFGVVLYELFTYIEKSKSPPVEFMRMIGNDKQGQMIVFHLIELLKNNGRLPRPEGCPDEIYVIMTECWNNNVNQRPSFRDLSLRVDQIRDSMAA

Molecular target: T1, TNFα receptor (TNFR1) (rat (endogenous in primary mixed glia of Wistar rats)) (UniProt P22934)
T1 sequence: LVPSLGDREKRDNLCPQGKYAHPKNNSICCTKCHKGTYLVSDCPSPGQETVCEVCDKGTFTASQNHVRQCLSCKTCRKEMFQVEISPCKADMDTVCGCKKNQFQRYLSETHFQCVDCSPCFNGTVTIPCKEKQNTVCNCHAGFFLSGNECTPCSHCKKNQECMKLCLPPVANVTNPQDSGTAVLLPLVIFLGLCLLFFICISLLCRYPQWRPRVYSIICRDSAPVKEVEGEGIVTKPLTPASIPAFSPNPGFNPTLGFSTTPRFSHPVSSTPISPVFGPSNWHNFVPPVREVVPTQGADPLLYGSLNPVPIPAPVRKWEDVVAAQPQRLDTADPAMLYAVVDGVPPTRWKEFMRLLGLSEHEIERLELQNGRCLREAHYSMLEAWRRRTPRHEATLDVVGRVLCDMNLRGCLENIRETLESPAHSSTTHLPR
Assay: co-IP; TNFR1 immunoprecipitated with an anti-TNFR1 antibody from lysates of rat mixed glia treated with TNFα (5 ng/ml) for 0, 5 or 10 minutes; western blot with a phospho-JAK2 specific antibody

In the case of “phosphorylated JAK2 (Janus kinase 2) (from UniProt Q62689 1-1132) (enzyme)”, the binding is reported as “binds”.
